The values below come from article PMC8635973.

Chains of the proteins cited; added tags and fusions are not shown. Lines headed by an entry give the natural chain unless they say otherwise; changes in a name come on top.
UniProt Q9Y5K5: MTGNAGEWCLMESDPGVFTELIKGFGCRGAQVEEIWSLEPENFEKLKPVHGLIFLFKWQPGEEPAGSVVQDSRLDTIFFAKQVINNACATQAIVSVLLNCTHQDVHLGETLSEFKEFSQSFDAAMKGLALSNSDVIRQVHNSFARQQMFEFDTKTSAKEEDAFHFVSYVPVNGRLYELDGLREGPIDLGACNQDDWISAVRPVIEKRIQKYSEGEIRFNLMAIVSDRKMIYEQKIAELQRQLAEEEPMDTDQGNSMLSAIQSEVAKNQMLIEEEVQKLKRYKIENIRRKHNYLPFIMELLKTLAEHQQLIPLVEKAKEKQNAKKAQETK
UniProt Q16401: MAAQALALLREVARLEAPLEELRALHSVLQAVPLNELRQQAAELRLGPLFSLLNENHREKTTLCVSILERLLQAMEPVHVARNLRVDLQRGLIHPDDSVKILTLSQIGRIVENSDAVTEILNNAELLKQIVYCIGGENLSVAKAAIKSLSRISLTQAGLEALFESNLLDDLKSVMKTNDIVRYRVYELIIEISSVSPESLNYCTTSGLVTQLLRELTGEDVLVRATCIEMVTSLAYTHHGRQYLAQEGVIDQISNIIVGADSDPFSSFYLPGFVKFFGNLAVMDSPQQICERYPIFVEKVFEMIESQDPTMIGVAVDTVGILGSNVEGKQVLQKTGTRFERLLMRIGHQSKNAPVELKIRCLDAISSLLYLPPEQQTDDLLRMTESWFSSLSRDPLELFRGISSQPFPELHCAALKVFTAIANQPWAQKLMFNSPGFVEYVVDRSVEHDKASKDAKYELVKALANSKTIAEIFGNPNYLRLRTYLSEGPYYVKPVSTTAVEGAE
UniProt O75832: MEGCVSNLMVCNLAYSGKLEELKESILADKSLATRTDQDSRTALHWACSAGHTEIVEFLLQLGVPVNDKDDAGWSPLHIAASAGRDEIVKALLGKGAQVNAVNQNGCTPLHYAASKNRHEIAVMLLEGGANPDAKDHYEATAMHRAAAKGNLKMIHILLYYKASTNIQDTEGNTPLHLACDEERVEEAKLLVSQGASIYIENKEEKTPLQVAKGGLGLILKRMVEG
UniProt P54727: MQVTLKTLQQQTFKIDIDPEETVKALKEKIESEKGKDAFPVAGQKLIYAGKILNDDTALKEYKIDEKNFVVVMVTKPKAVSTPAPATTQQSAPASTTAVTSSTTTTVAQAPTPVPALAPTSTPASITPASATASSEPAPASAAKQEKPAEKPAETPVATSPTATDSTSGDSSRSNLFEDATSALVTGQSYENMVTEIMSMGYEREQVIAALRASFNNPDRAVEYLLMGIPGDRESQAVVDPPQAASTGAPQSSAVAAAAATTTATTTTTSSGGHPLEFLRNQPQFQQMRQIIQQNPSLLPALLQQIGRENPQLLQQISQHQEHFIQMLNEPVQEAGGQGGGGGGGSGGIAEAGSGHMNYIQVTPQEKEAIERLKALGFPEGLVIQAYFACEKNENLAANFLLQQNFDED

Results are given in words; binding and its absence hold for the method and conditions named. In cells and extracts the contact can be indirect. A yes stands for co-enrichment or nearness to the bait. Other partners may have been found.

The target in the assay is Flag-GFP-UCH37(C88S) (UniProt Q9Y5K5). As to the kind of experiment: affinity purification with mass spectrometry; HCT116 cells crosslinked with 0.025 % formaldehyde, lysed with ATP; anti-GFP nanobody on Sepharose, 2 hr 4 °C; on-bead digestion, TMT10plex, LC–MS/MS; abundances normalised to the WT sample and to the 19S subunits.
PSMD5 (from UniProt Q16401 1-504): the binding result was “binds”.

On to PSMD10 (from UniProt O75832 1-226), for which the binding entry was “binds”.

As to “RAD23B (endogenous) (from UniProt P54727 1-409)”, the binding result was “binds”.
